Results are given in words; binding and its absence hold for the method and conditions named. In cells and extracts the contact can be indirect. Some entries that bind do so weakly or less than the wild type.
Target: FLAG-tagged HP1β (UniProt P83916)
Assay: co-IP; nuclei of HEK293 cells expressing a FLAG-tagged reader digested with micrococcal nuclease; anti-FLAG immunoprecipitation of bound mononucleosomes, elution with excess FLAG peptide; input, unbound and eluted fractions on 17% SDS-PAGE with Coomassie blue staining

Protein sequences, listed by entry. Tags and fused reporters are not part of them.
UniProt P83916: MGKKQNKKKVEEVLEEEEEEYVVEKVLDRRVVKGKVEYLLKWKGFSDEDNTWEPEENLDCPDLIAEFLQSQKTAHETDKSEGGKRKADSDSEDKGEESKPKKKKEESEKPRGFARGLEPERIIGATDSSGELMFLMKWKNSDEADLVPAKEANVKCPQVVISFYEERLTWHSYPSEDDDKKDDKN
UniProt Q13263: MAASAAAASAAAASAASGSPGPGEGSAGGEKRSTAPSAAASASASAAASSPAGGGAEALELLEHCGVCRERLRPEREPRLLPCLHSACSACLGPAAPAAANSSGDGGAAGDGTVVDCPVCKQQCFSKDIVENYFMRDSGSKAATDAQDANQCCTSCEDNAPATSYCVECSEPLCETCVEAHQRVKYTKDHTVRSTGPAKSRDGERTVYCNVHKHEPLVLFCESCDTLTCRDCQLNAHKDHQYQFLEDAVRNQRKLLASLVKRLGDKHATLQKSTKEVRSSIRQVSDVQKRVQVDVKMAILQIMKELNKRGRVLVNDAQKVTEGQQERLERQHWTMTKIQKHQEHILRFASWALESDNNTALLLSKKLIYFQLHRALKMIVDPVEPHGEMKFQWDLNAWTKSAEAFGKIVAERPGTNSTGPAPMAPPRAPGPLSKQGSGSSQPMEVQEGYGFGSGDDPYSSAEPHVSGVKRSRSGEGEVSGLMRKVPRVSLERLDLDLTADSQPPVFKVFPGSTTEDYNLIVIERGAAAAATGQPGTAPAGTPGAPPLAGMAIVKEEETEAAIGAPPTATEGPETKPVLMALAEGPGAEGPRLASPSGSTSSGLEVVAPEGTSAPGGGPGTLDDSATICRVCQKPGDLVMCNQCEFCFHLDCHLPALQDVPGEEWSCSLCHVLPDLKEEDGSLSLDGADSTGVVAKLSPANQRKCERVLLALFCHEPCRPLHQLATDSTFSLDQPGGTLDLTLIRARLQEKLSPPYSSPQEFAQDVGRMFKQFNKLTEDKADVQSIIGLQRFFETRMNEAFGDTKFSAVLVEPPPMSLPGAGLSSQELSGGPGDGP

Tif1β protein (from UniProt Q13263 1-835)
binding: binds
